PubChem BioAssay AID1259283 | Sanger Institute, 2017
Here is an unselected part of 794 reagents. 14 of all reagents (1.8%) count as active. 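Calls reflect only viability loss without drug; drug synergy does not enter the call.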 Further read-outs or replicates are left out here. The record does not give: the amount of reagent, the time to read-out.

Aim: 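Kinases whose silencing adds to targeted drugs in killing colon cancer cells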 (primary screen)
Cell system: HT115 colorectal cancer cells
Reagent: siRNA pool against human genes
Challenge: anchor drug given one day after siRNA: BYL719 at 1 µM, cetuximab at 5 µg/ml, trametinib at 10 nM, or DMSO vehicle alone
Detection: 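Per-drug synergy scores plus replicate-mean viability relative to non-targeting pool #2 wells, also expressed as a robust z-score based on control wells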
Direction: robust z-score, knock-down alone: higher = more viable cells after knock-down
Hit rule: 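a gene counts as essential when its robust z-score with knock-down alone is below -3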
Meaning of the calls: active = essential (z below -3, no drug); inactive = no change without drug

target	robust z-score, knock-down alone	Outcome
PHKG2	0.789	inactive
ALPK3	0.229	inactive
COQ8B	0.789	inactive
NTRK2	-0.221	inactive
CDKL4	-1.76	inactive
IRAK1	-1.79	inactive
CSK	0.789	inactive
EXOSC10	-1.02	inactive
GUCY2EP	-0.382	inactive
MAPK14	0.789	inactive
PFKFB2	0.556	inactive
PAK1	0.585	inactive
CDK20	-0.0262	inactive
FN1	0.789	inactive
PAK2	0.739	inactive
SHPK	0.789	inactive
EPHB2	-0.762	inactive
ACVRL1	0.789	inactive
MAP3K9	-2.11	inactive
FXN	0.027	inactive

Reprinted from the entries so far for reference:
target	robust z-score, knock-down alone	Outcome
PAK2	0.739	inactive
SHPK	0.789	inactive
EPHB2	-0.762	inactive
